Laboratory results as given in patent US20250367240A1, “DERIVATION OF GLUCOSE-RESPONSIVE INSULIN-SECRETING CELLS AND ORGANOIDS FROM HUMAN STOMACH CELLS AND THEIR USE TO TREAT DIABETES” (CORNELL UNIVERSITY, priority 2022, published 2025).
At least one structure is not confirmed: it was looked up by name or label, or the drawing left a doubt.

Tested on: GINS organoids
Test: Dynamic GSIS with perifusion
Type: cell-based, human
Conditions: day-21 organoids, two donors; 100 ng/mL Liraglutide in 20 mM glucose; 30 mM KCl in 2 mM glucose
Method: Twenty GINS organoids were sampled for each group. Organoids were washed with RPMIN and equilibrated in 1 mM glucose RPMIN for 2 hours at 37° C. incubator. The assay was performed in RPMIN on a temperature-controlled (37° C.) perifusion system (Biorep Technologies). Organoids were loaded in chambers and perfused at a flow rate of 100 μL/min in the following steps: (1) 48 min in 1 mM glucose, (2) 24 min in 2 mM glucose. (3) 36 min in 20 mM glucose, (4) 24 min in 20 mM glucose with 100 ng/mL Liraglutide (Cayman, 24727), (5) 48 min in 2 mM glucose, (6) 20 min in 2 mM glucose with 30 mM KCl. Secreted insulin was measured using the Stellux Chemi Human Insulin ELISA.

Question: `CCCCCCCCCCCCCCCC(=O)N[C@@H](CCC(=O)NCCCC[C@H](NC(=O)[C@H](C)NC(=O)[C@H](C)NC(=O)[C@H](CCC(N)=O)NC(=O)CNC(=O)[C@H](CCC(=O)O)NC(=O)[C@H](CC(C)C)NC(=O)[C@H](Cc1ccc(O)cc1)NC(=O)[C@H](CO)NC(=O)[C@H](CO)NC(=O)[C@@H](NC(=O)[C@H](CC(=O)O)NC(=O)[C@H](CO)NC(=O)[C@@H](NC(=O)[C@H](Cc1ccccc1)NC(=O)[C@@H](NC(=O)CNC(=O)[C@H](CCC(=O)O)NC(=O)[C@H](C)NC(=O)[C@@H](N)Cc1cnc[nH]1)[C@@H](C)O)[C@@H](C)O)C(C)C)C(=O)N[C@@H](CCC(=O)O)C(=O)N[C@@H](Cc1ccccc1)C(=O)N[C@H](C(=O)N[C@@H](C)C(=O)N[C@@H](Cc1c[nH]c2ccccc12)C(=O)N[C@@H](CC(C)C)C(=O)N[C@H](C(=O)N[C@@H](CCCNC(=N)N)C(=O)NCC(=O)N[C@@H](CCCNC(=N)N)C(=O)NCC(=O)O)C(C)C)[C@@H](C)CC)C(=O)O` [liraglutide] was tested. Which “insulin secretion response of GINS cells to the agent, dynamic GSIS” value did it give?
Answer: Its value is “responded robustly”.
